The full ranking holds about 33,000 sequences; the median of “E-score (-0.5 to 0.5)” is about -0.0059, and the highest 2% start at about 0.26. The list shows a part of the results.
target: T1, Cin5 (UniProt P40917); assay: PBM E-score (8-mer binding enrichment) (E-score (-0.5 to 0.5)); higher = stronger / more preferred TF binding; settings: protein concentration: 100 nM; construct: GST-full length
T1 sequence: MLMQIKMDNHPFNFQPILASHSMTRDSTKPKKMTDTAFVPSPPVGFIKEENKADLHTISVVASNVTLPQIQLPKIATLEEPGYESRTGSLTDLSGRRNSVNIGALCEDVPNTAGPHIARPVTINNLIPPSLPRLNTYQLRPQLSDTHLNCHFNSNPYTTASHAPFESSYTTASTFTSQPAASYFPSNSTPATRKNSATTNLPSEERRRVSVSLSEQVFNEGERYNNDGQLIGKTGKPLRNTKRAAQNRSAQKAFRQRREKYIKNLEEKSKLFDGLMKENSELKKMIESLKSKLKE
Experimental: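 Universal 'all 10-mer' protein binding microarrays (Agilent AMADID 015681) probed with GST-tagged S. cerevisiae TFs (full-length or DBD) made by in vitro transcription/translation (PURExpress), about 100-200 nM. Bound TF was detected with fluorescent anti-GST. Each ungapped 8-mer (which stands for itself and its reverse complement) is scored by the PBM enrichment score (E-score), a modified Wilcoxon-Mann-Whitney statistic from -0.5 to +0.5, computed with the Universal PBM Analysis Suite. Scale: above 0.35 generally sequence-specific binding.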

Sequence	PBM E-score
ATATCGTG	-0.0718
AATGGCCG	-0.0456
AAGGAACA	-0.0921
GAAGTGCC	-0.182
CGCACATC	0.0232
CTCTCGTC	-0.0573
CCAAACAC	-0.0256
GCGTGGGA	-0.0838
AATACCAG	0.176
AACCGCTG	-0.0663
GCATTCTA	0.0846
CGAAAGGA	0.075
AAAGCACG	-0.147
CACCCCCA	-0.424
AAGACCTG	-0.0993
AAAGCGAG	0.119
CTAGCTGA	0.0658
TGCGGGAA	0.0931
AGTTATCC	0.134
GCTCAACC	-0.166
GAAATTGA	0.0828
AAGAGAAA	-0.0461
AGTAAGAA	0.149
ACGTGTCC	-0.217
ACGTACGA	-0.0268

Sequence	PBM E-score
ATGGCGAG	-0.0288
CAGCCGTA	-0.0293
AGTATGGA	0.081
AGCCCGTG	-0.258
CACGATGA	0.0588
GTTAAAGA	-0.0778
AATCAGGC	0.12
ACCCTCCT	-0.218
GATTGAGC	0.0455
CAGTAGCA	-0.0186
GGTGCAAA	-0.0911
ATACCAGA	0.193
ACCAGACG	-0.119
GGGCCGGA	-0.201
ACGAGGCC	-0.292
AACGGGGG	-0.286
ATGGTGTG	0.063
GCTTTCAC	-0.0478
ACTTCCAC	0.048
AAGGGAAA	-0.0882
CCGAAGCG	-0.12
ATCCAACA	0.0603
CCTGTATC	0.106
GCCGAGTA	-0.209
ATGTTGCG	0.0768

Sequence	PBM E-score
CATACTAG	0.207
AGGTACCA	-0.208
AGATCAAC	0.0687
ATCTAAGC	0.0466
ACCGGTGA	-0.188
CCCACACG	0.0465
AGGTTTTG	-0.037
CACCCCCG	-0.182
ATCTACCC	0.178
CCATTACG	0.0601
GCCCTCCA	-0.212
ACAACTGA	0.18
ACAACTCT	-0.0384
ACTGTGCG	0.0559
ACCTCCGA	-0.288
ATTGTGTG	0.0687
AGAGTATC	0.148
GGATGGCA	0.27
GGCTTACA	0.332
TACGTATA	0.167
AAGGGACA	-0.142
GGGGCGAA	-0.0333
AAAGCAAT	0.253
AACACAAC	0.0594
AAATACCA	0.0623

Sequence	PBM E-score
GAAGCTAC	-0.068
TGTCCTAA	-0.00752
GGACTATA	0.0502
AGGTACCG	-0.0749
CGAATTGC	0.119
TCGCGGAA	-0.0345
GAATCTGC	-0.00411
GAGCCGCA	-0.0266
CTACCCCC	-0.404
CCGACCGA	-0.142
ATTAGCAC	0.133
GGACTGCC	-0.188
ATCCGGCG	-0.0154
ATACGGAT	0.202
ACAGCGCA	-0.0308
ATGTGAAT	0.101
AAATCCAT	0.312
AGCTACAG	-0.0414
AGTTTACA	0.0922
CCTCCTTC	-0.183
AAAGAAGC	-0.013
CCAAGCGC	-0.0394
CCGACTCC	-0.155
GGTAATCA	0.289
CTTGCGTC	-2e-05

Sequence	PBM E-score
TAAAAGGA	0.116
AGAGAGAC	-0.164
GCGAATTA	0.266
GACGTGGA	0.0127
AAGTAGCC	-0.151
GAGCTTGC	-0.0833
ACAATTGG	-0.0476
AACATTTC	0.0406
CCCTTTTA	-0.261
GCCATACC	-0.237
CGGACTAG	-0.124
TCGTCAGA	-0.145
GAGTTATA	0.0627
AGGATAGG	-0.159
GGCGAGGA	-0.236
GCTATCCA	-0.049
GCGGCAAC	-0.105
ACATGCGA	-0.123
ATGTGGTA	0.186
CGTTAGAG	-0.135
GCGAGAGA	-0.169
ACTGATCT	0.116
GAGGACAC	0.015
ACCTCCAC	-0.0645
ATCGGGTC	0.0596

Sequence	PBM E-score
CAGCACTC	0.0369
ATTCTTAA	-0.0342
CCGGGAAC	0.0243
CCCTTGCC	-0.119
GCGACACC	-0.204
GATTTTGC	-0.0519
CCACCGGC	-0.207
ACCCCTTC	-0.0781
CATCGCCG	0.0495
CGTCTTTA	0.134
CCATCAGG	-0.146
ATATAAGG	0.137
TATCACGA	0.0776
GTAAGAAC	0.0555
CTCGTAAC	0.129
AATTTCAA	0.103
ACAAACCT	0.187
GTATGCTA	-0.0513
CACCACAA	-0.0267
CCGCTAGG	-0.167
CGGGCACG	-0.19
AACCTTCT	-0.155
GTAATATA	0.323
ACGTCGCA	-0.0635
ACTGGGCA	-0.0941

Single entries from the list:
Under PBM E-score, AGAGTATC is entered as 0.148
Under PBM E-score, AACCTTCT is entered as -0.155
Under PBM E-score, CGGACTAG is entered as -0.124
Under PBM E-score, AGGTACCG is entered as -0.0749
Under PBM E-score, GAATCTGC is entered as -0.00411

Remaining list, next part.

Sequence	PBM E-score
GCGCAATA	0.00923
AGAAGGGC	-0.254
GGCACATA	-0.0683
ATCAGGGG	-0.0935
GTGTCCCA	-0.119
CAGCGAAC	0.014
GGAGGCAA	-0.121
AGGTCGAG	-0.133
AGAGATAA	0.213
CACACACG	-0.0573
ATCGGCTG	-0.0203
AACGCAGA	-0.0604
CGTGGACC	-0.303
AGTTTTTC	0.0533
CGTTGCCA	-0.0899
ATCGATTC	0.0794
GGGCTGAA	-0.0295
GACGGTGA	-0.0952
CGTAGAGC	-0.0105
CCATTCGA	-0.045
CTTCCCAC	0.00503
GCAACCAA	0.119

Fetched one by one from the list above, six records:
Sequence	PBM E-score
AGGTCGAG	-0.133
CGTGGACC	-0.303
GCAACCAA	0.119
CTTCCCAC	0.00503
CGTAGAGC	-0.0105
ATCGGCTG	-0.0203
